Paper PMC10383573, “New Imadazopyrazines with CDK9 Inhibitory Activity as Anticancer and Antiviral: Synthesis, In Silico, and In Vitro Evaluation Approaches” (Pharmaceuticals, 2023)

Columns and labels:
Assay type in all cases: cell-based
K652 cancer cells = assay: MTT cytotoxicity assay, K652; details: K652, 48 h, read-out: IC50 K652
Procedure: (§1) The cytotoxicity effect of the new compounds was assessed in an MTT assay against chronic myelogenous leukemia (K652), colorectal (HCT116), and breast (MCF7) cancer cell lines. […] The data is presented in Table 4 as IC50 values (in µM).
(§2) Cells were obtained from American Type Culture Collection. The cell culture DMEM was obtained from Life Technologies and Invitrogen and supplied with 10% FBS from Hyclone, 1% penicillin-streptomycin, and 10 µg/mL insulin from Sigma-Aldrich.
(§3) The MTT assay was used to monitor the in vitro cytotoxicity of our compounds. The cells were treated with serial concentrations of the compounds to be tested, which ranged from 0.1–10 µM at 37 °C for 48 h. Then, the cells were incubated with 10% v/v reconstituted MTT at 37 °C for 3 h. The multiwell plates were then read using Wallac Victor2 1420 multilabel counter, and the absorbance was measured at a wavelength of 450 (ex) and 590 nm (em).

HCT116 cancer cells = assay: MTT cytotoxicity assay, HCT116; details: Homo sapiens, HCT-116, 48 h, means (SD) of three trials
Procedure: as §1, §2, §3

[1] = tested on: MCF7, HCT116, and K652 cancer cells; assay: MTT cytotoxicity assay, average of the three cell lines
Procedure: as §1, §2, §3

FHC normal cells = assay: MTT assay against FHC normal cells; details: normal noncancerous cells
Procedure: To ensure that the cytotoxicity effect of our compounds observed on the previous assay was selective to cancer cells, the most cytotoxic agents to cancer cells (1a, 1c, 1d, 3b, and 4b) were evaluated on normal cells.
as §3

Question: Which results are given for `CN[C@@H]1C[C@H]2O[C@@](C)([C@@H]1OC)n1c3ccccc3c3c4c(c5c6ccccc6n2c5c31)C(=O)NC4` [Staurosporine, reference compound]?
Answer: IC50 (K652 cancer cells): 22.1 ± 0.56 µM; IC50 (HCT116 cancer cells): 10.9 ± 0.26 µM; IC50 [1]: 17.1 µM; IC50 (FHC normal cells): 38.2 ± 0.97 µM
